The record followed here is PubChem BioAssay AID493014 (National Center for Advancing Translational Sciences (NCATS), 2011).

This assay is described as follows: qHTS Assay to Find Inhibitors of Chronic Active B-Cell Receptor Signaling. As to conditions: ABC-DLBCL IkBa-CBG/CBR reporter, luminescence ratio (green luciferase fused to IkBa over red control in TMD8 lymphoma cells), 4 h. A digest of the protocol:
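TMD8 ABC-DLBCL cells carrying doxycycline-inducible green luciferase fused to IkappaBalpha plus unfused red luciferase were exposed to compounds (up to 46 uM) for 4 hrs at 37C. Activity came from the overlap-corrected green/red luminescence ratio.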
A general note: In qHTS, concentration-response curves come from the screen itself.

The mark [1] stands for this setting: measured here: CBR red luminescence, cell number.
Setting [2] is: measured here: IkBa-CBG green luminescence.

This is one part of the list. These are further read-outs of the screen, such as a control signal, another cell line or another target. No call is given for them. The list favours compounds with an active or inconclusive main result. Words in brackets tell the shape of the fitted curve; partial curves, single points and poor fits give uncertain potencies.

`C=C(C)[C@@H]1CC=C(CN2CCC(N3CCC(C(=O)N4CCCC4)CC3)CC2)CC1`: under setting [1], the AC50 (commonly the midpoint of the concentration-response curve, whichever way the signal moves) was 22.4 µM [falling, single point].
The same measure, in the same setting: the figure for `CCn1c(=O)n(CC)c2cc(S(N)(=O)=O)ccc21` is 29.1 µM [rising, single point].
On the same count and under the same terms, the figure for `Cc1cc(=S)nc(-c2ccccn2)[nH]1` is 35.5 µM [rising, single point].
Still for that read-out and setting: then `CCC(C)NCCOCCOc1ccc(Cl)c(C)c1C` (stereo not drawn), with 18.4 µM [falling, single point].
With `O/N=C/c1ccc(OCC(O)COc2ccc(/C=N/O)cc2)cc1`, the AC50 under setting [1] was 0.13 µM [falling, full curve, poor fit].
The same measure, in the same setting: the figure for `CCOC(=O)c1c(CN2CCN(CCO)CC2)n(-c2ccccc2)c2cc(Br)c(O)cc12` is 0.112 µM [falling, full curve, poor fit].
Still for that read-out and setting: then `COc1ccc(-c2noc(CCC(=O)Nc3cccc(C)c3)n2)cc1`, with 11.6 µM [rising, partial curve, poor fit]; and `O=C(N/N=C/c1ccc([N+](=O)[O-])cc1)c1cnccn1`, with 7.08 µM [falling, full curve, poor fit]; and `O=C(CN1CCCCC1)N/N=C/c1cccc(Cl)c1`, with 7.94 µM [rising, partial curve, poor fit].
With `O=C(CSc1nc2[nH]ncc2c(=O)n1-c1ccc(Cl)c(Cl)c1)NCc1ccccc1Cl`, the AC50 under setting [1] is 15.8 µM [falling, partial curve] and the AC50 under setting [2] is 14.1 µM [rising, partial curve, poor fit].
Consider `COc1ccccc1C(=O)NCCC(=O)NCc1cccs1`, for which the AC50 under setting [1] is 4.11 µM [rising, single point].
On the same count and under the same terms, then `CC(C)(C)c1csc(NC(=O)c2ccccc2O)n1`, with 1.78 µM [falling, partial curve]; and `COC(=O)c1ccc([C@H]2CC(=O)O2)cc1`, with 15.8 µM [falling, partial curve, poor fit].
Same read-out and setting: then `O=C(c1cc(COc2c(F)cccc2F)on1)N1CCC(c2ccccc2F)C1` (stereo not drawn), with 2 µM [rising, partial curve, poor fit]; and `CCCCOC(=S)NC(=O)c1sc2ccccc2c1Cl`, with 11.2 µM [rising, partial curve].
With `Cc1cc(O)cc(O)c1C(=O)Cc1cnn(-c2ccccc2)c1`, under setting [1], the AC50 was 3.66 µM [rising, single point].
Same read-out and setting: the figure for `CCCS(=O)(=O)c1cnc(C2COc3ccccc3O2)nc1N` (stereo not drawn) is 12.6 µM [falling, single point]; for `c1ccc(Nc2nc3ccccc3n3nnnc23)cc1` it is 0.631 µM [falling, full curve]; for `CCCC(=O)Nc1cccc(Oc2ccc3c(c2)C(=O)NC3=O)c1` it is 17.8 µM [falling, single point].
The same measure, in the same setting: the figure for `O=C(COc1ccccc1[N+](=O)[O-])N/N=C/c1cccs1` is 25.9 µM [rising, partial curve, poor fit]; for `O=C(Cc1ccsc1)OCC(=O)c1ccccc1` it is 4.11 µM [rising, partial curve].
The same measure, in the same setting: the figure for `Cc1ccc(S(=O)(=O)NC(=O)c2cc(C)n(-c3ccc(N(C)C)cc3)c2C)cc1` is 1.03 µM [rising, full curve, poor fit].
For `Cn1c(=O)c2c(ncn2CC(COCc2ccccc2Cl)OCc2ccccc2Cl)n(C)c1=O` (stereo not drawn), under setting [1], the AC50 is 20 µM [falling, partial curve, poor fit].
Still for that read-out and setting: then `O=C(Cc1c[nH]c2ccccc12)NCc1ccc2c(c1)OCO2`, with 12.6 µM [falling, partial curve].
With `O=C(Nc1cccc(F)c1)NC1(C(=O)N2CCOCC2)CCCCC1`, the AC50 under setting [1] was 11.2 µM [rising, partial curve].
Consider `CCOc1ccc(-c2nnc(-c3cccs3)o2)cc1`, for which the AC50 under setting [1] was 1.58 µM [rising, full curve].
The same measure, in the same setting: then `c1ccc(CN2CCN(c3nc(-c4ccccc4)nc(-n4ccnc4)n3)CC2)cc1`, with 22.4 µM [falling, single point]; and `Cc1nn(-c2ccccc2)c(CC(C)(C)C(=O)O)c1C(=O)O`, with 29.1 µM [rising, single point]; and `CCOc1ccc(N(Cc2ccccc2F)C2=NC3CS(=O)(=O)CC3S2)cc1` (stereo not drawn), with 12.6 µM [falling, single point].
On the same count and under the same terms, the figure for `CC(=O)O[C@H]1[C@H](O)[C@H](Oc2c(O)c(C)c3c4c2[C@@H](C)CC[C@@H]4[C@@H](C)C[C@H]3C=C(C)C)O[C@@H](C)[C@H]1O` is 29.1 µM [rising, single point]; for `COc1ccc(/C=N/NC(=O)c2ccco2)cc1COc1ccc(F)cc1` it is 10 µM [rising, partial curve, poor fit].
Same read-out and setting: the figure for `COC(Cn1cc(C)c(=O)[nH]c1=O)OC` is 8.91 µM [rising, partial curve, poor fit]; for `COC(=O)c1oc2nc(C)cc(C)c2c1N` it is 23.1 µM [falling, partial curve, poor fit].
Consider `NC1=NC(=Nc2ccccc2)c2ccccc21`, for which the AC50 under setting [1] is 5.8 µM [rising, full curve, poor fit].
Same read-out and setting: then `CN(C)c1ccc(-n2cccc2/C=N/n2cnnc2)cc1`, with 32.6 µM [falling, partial curve, poor fit].
Same read-out and setting: the figure for `CCOc1cccc2sc(N(CCCN(C)C)C(=O)c3ccc(S(=O)(=O)N(CC)Cc4ccccc4)cc3)nc12` is 15.8 µM [falling, single point]; for `Cc1ccccc1C(=O)N1CCC(C(N)=O)CC1` it is 2.91 µM [rising, single point].
Still for that read-out and setting: the figure for `Cc1ccc(OC(=O)C(F)(F)F)c2c1NCCC2` is 1.64 µM [rising, partial curve, poor fit]; for `CCCCCCCCn1ccc(=N)cc1` it is 22.4 µM [falling, single point].
As to `CCN1C(=O)c2cccc3c(S(=O)(=O)Nc4ncccc4C)ccc1c23`, the AC50 under setting [2] is 22.4 µM [falling, partial curve, poor fit].
Consider `CCCOc1ccc(C(=O)CCNc2cccc(Cl)c2)cc1`, for which the AC50 under setting [1] is 4.47 µM [rising, single point].
The same measure, in the same setting: the figure for `Cc1cccc2sc(N(CCCN(C)C)C(=O)CCc3ccccc3)nc12` is 29.1 µM [falling, single point].
